These are yes or no findings as the source states them, for the method shown. In cells and extracts the contact can be indirect. Here binding means that the protein was enriched with, or labelled near, the bait; the list need not be complete. For some of these results: A no says only that the protein was not detected with the bait.

Sequences and labels used below:
T1: Neph1 (not stated (endogenous in glomeruli of rat or mouse)) (UniProt Q6X936)
T1 sequence: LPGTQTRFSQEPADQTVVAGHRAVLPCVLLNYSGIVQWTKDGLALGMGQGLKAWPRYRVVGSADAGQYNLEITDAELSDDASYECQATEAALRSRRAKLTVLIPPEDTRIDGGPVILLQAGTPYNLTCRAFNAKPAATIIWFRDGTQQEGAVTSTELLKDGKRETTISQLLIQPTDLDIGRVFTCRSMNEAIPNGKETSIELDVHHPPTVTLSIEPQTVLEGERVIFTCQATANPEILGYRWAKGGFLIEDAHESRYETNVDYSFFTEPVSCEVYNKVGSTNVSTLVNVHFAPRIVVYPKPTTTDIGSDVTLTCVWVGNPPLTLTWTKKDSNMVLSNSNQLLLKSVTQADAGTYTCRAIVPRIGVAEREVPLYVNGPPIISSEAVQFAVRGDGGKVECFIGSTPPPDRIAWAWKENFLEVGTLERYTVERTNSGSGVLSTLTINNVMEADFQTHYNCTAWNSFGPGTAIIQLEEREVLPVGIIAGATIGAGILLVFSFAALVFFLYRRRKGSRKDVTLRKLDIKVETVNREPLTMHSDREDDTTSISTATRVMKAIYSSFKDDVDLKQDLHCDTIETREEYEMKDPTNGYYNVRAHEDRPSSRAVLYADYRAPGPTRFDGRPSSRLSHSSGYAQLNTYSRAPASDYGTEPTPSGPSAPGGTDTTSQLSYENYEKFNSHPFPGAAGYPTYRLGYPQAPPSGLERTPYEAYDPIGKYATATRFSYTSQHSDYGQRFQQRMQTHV

T2: Nephrin (not stated (endogenous in glomeruli of rat or mouse)) (UniProt Q9R044)
T2 sequence: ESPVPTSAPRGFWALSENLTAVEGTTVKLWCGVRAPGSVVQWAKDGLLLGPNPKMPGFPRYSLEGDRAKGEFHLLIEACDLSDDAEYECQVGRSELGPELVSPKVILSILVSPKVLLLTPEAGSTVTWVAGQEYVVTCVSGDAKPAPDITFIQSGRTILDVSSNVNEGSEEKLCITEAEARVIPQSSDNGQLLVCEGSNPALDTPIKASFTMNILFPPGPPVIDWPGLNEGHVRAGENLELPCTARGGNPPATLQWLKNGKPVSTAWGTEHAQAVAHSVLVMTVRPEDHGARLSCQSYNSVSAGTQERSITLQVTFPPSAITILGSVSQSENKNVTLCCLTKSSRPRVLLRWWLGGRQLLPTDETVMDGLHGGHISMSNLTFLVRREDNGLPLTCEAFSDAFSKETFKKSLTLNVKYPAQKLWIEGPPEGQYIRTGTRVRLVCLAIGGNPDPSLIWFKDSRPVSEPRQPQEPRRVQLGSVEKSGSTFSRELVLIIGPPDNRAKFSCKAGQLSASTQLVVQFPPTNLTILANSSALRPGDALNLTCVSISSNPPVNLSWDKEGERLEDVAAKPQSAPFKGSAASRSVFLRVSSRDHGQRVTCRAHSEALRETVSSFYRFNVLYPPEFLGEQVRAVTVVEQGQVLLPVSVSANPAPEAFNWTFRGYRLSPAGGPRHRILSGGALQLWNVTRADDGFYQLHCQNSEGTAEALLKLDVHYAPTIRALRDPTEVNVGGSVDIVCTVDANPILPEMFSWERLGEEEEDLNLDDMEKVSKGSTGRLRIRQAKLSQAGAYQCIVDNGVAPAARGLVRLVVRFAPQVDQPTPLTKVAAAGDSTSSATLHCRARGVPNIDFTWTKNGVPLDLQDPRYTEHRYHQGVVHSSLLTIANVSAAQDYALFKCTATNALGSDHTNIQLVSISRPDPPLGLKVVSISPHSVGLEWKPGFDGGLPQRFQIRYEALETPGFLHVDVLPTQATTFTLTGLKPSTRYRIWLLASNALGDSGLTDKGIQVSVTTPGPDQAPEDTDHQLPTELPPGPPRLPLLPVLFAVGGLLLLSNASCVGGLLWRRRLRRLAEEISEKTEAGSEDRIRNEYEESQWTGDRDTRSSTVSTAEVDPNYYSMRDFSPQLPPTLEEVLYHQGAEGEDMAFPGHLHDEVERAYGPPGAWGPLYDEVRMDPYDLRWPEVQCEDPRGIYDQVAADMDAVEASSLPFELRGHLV

B1: R-Ras (protein, UniProt D3Z8L7 1-218)
chain: MSSGAASGTGRGRPRGGGPGPRDPPPGETHKLVVVGGGGVGKSALTIQFIQSYFVSDYDPTIEDSYTKICTVDGIPARLDILDTAGQEEFGAMREQYMRAGNGFLLVFAINDRQSFIEVSKLFTQILRVKDRDDFPIVLVGNKADLETQRQVLRSEASSFSASHHMTYFEASAKLRLNVDEAFEQLVRTVRKYQEQELPPSPPSAPRKKDGRCPCVLL
B2: tyrosine kinase MER (protein, UniProt P57097 19-994)
chain: GGTAEKEEEIKPDQPFSGPLPGSLPADHRPFFAPHSSGDQLSPSQTGRSHPAHTATPQMTSAASNLLPPVAFKNTIGRIVLSEHKSVKFNCSINIPNVYQETAGISWWKDGKELLGAHHSITQFYPDEEGVSIIALFSITSVQRSDNGSYICKMKVNDREVVSDPIYVEVQGLPYFTKQPESVNVTRNTAFNLTCQAVGPPEPVNIFWVQNSSRVNENPERSPSVLTVAGLTETAVFSCEAHNDKGLTVSKGVQINIKVIPSPPTEVHILNSTAHSILVSWVPGFDGYSPLQNCSIQVKEADQLSNGSVMVFNTSASPHLYEVQQLQALANYSVTVSCRNEIGWSAVSPWILASTTEGAPAVAPLNITVFLNESSNNLEIRWTKPPIKRQDGELVGYRISHVWESAGTSKELSEEVSQNGSWAQVPVQMHNATCTVRIAVITKGGIGPFSEPVDVAIPEHSRVDYAPSSTPAPGNTESMLIILGCFCGFVLMGLILYLSLAIKRRVQETKFGGAFSEEDSQLVVNYRAKKSFCRRAIELTLQSLGVSEELQNKLEDVVVDRNLLILGKVLGEGEFGSVMEGNLKQEDGTSQKVAVKTMKLDNFSLREIEEFLSEAACMKDFNHPNVIRLLGVCIELSSQGIPKPMVILPFMKYGDLHTFLLYSRIESVPKSIPLQTLLKFMVDIAQGMEYLSSRNFLHRDLAARNCMLRDDMTVCVADFGLSKKIYSGDYYRQGRIAKMPVKWIAIESLADRVYTSKSDVWAFGVTMWEIATRGMTPYPGVQNHEMYDYLLHGHRLKQPEDCLDDLYEIMYSCWSADPLDRPTFSVLRLQLEKLSESLPDAQDKESIIYINTQLLESCEGLANRSSLAGLDMNIDPDSIIASCTAGAAVSVVMAEVHENNLHEERYILNGGNEEWEDVASTPFATVTAGKDGVLPEDRLTKNGISWSHHSTLPLGSPSPDELLFADDSSGDSEVLM
B3: Podocin (protein, UniProt Q8K4G9 1-383)
chain: MDSRARSSSRKTHGRGSRSSSRDDKKSKAGRGNRGRARPDAGAERQSAGRTGTREEHRAPAATVVNVDEVRSPGEEGTEVVALLESERPEEGIKPSGLGACEWLLVLSSLIFIIVTFPFSIWFCIKVVQEYERVIIFRLGHLLPGRAKGPGLFFFLPCLDTYHKVDLRLQTLEIPFHEVVTKDMFIMEIDAVCYYRMENASLLLSSLAHVSKAIQFLVQTTMKRLLAHRSLTEILLERKSIAQDVKVALDSVTCVWGIKVERTEIKDVRLPAGLQHSLAVEAEAQRQAKVRVIAAEGEKAASESLRMAAEILSGTPAAVQLRYLHTLQSLSTDKPSTVVLPLPFDMLNLLSSPSNRAQGSINYPSSPKPVEPLNPKRKDSPML
B4: Nephrin (protein, UniProt Q9R044 37-1252)
chain: T2 sequence
B5: Neph1 (protein, UniProt Q6X936 48-789)
chain: T1 sequence

The first experiment addresses T1, Neph1 (not stated (endogenous in glomeruli of rat or mouse)). Kind of experiment: affinity purification with mass spectrometry; three anti-Nephrin/Neph1 ABs immobilised on magnetic beads, two hours with CL-47 or CL-91 solubilisates of glomerular membrane fractions; eluates by nano-LC-MS/MS; specific: tnR >=0.2 against three target-unrelated ABs/IgG, in at least two anti-Nephrin/Neph1 APs.
B1: the binding result was “binds”.
On to B2, for which the binding result is “binds”.
As to B3, the binding entry was “no binding”.
Take B4: the binding result is listed as “binds”.

Another experiment concerns the target T2, Nephrin (not stated (endogenous in glomeruli of rat or mouse)). The experiment is described as above.
Consider B5, for which the binding entry is recorded as “binds”.
With B1, the binding result is given as “binds”.
The same measure, in the same setting: for B2 the value was “binds”.

For the origin of these results see publication PMC9616960.
